# Assay results: patent publication US9096524B2, “Anthelmintic agents and their use” (Intervet International B.V., priority 2009, dated 2015)
# Some entries share one result that the patent states for a list of compounds.
# Test system: A. galli (intestinal roundworm of chicken) larval stage 3; O. dentatum (nodular worm of swine) larval stages 3 and 4
# Experiment: Activity against Ascaridia galli and Oesophagostomum dentatum larvae in vitro (minimum effective concentration)
# Format: cell-based
# Conditions: one or more of A. galli L3, O. dentatum L3, L4, threshold 7 μM
smiles,measurement,value
O=C(CCN1CCN(c2ccccc2)CC1)N1CCC(Nc2ccc([N+](=O)[O-])c(C(F)(F)F)c2)CC1 [Example 171],MEC (minimum effective concentration) against one or more of the tested nematodes,less than 7 μM
